Experimental data reported in PubChem BioAssay AID504467 (National Center for Advancing Translational Sciences (NCATS), 2011).
The whole screen tested about 330,000 compounds, of which about 7,700 (2.3%) were called active. Inconclusive results, whose numbers are uncertain, are shown with a selection of clear calls. Calls follow the shape of the dose curve; as a rule, active = well fitted inhibition curve with a large enough effect; inconclusive = small, poorly fitted or top-dose-only effect, or effect the other way; inactive = flat fitted curve, though single readings scatter. Potencies of inconclusive entries are doubtful fits and often do not repeat.

assay: qHTS screen for small molecules that inhibit ELG1-dependent DNA repair in human embryonic kidney (HEK293T) cells expressing luciferase-tagged ELG1; details: HEK293T ELG1-luciferase reporter, luminescence, 16 h, DNA damage induced by 5-fluorouridine; activity change, negative = inhibition: at 46.1 µM (top of the series); also: nearly all actives have a fitted effect of over 55% in size
How it was run: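 In this reporter screen, reduction of luminescence relative to DMSO vehicle indicated activity. Compounds and 5-fluorouridine were added together to 2,000 cells per well, incubated for 16 hr at 37 °C, then developed with ONE-Glo.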
% is scaled to controls: 0 for no effect and ±100 for the full control effect; potency is read from the fitted curve at half-maximal effect.

Structure (SMILES)	activity change, negative = inhibition	Potency
NC(=O)c1cc(NC(=O)c2ccc(NS(=O)(=O)c3cccs3)cc2)cc(C(N)=O)c1	inactive: -1.33%	–
COc1cc(CCC(=O)Nc2ncc(C)s2)cc(OC)c1OC	inactive: 12.5%	–
COc1cccc(CN(C(=O)Cc2c[nH]c3ccccc23)C(C(=O)NC2CCCCC2)c2ccc(C)o2)c1 (stereo not given)	–	active: 18.4 µM
CC(C(=O)NC(=O)NC1CCCCC1)N(C)CC(=O)Nc1ccc(F)c(F)c1F (stereo not given)	–	inconclusive: 20.6 µM [inhibitor, partial curve, poor fit]
CCn1c(=N)n(CC(=O)OC)c2ccccc21	inactive: 2.27%	–
N#Cc1cc([N+](=O)[O-])ccc1NC(=O)COC(=O)CC1CCCC1	inactive: 0.152%	–
Cn1cc(CN(CCO)Cc2cccs2)c(-c2ccccc2F)n1	inactive: 3.39%	–
Fc1cccc(Cc2noc(CN3CCCCC3CCc3ccccn3)n2)c1 (stereo not given)	–	inconclusive: 20.6 µM [inhibitor, single point]
Clc1ccc2nc(-c3ccccc3)cn2c1	–	inconclusive: 2.59 µM [activator, partial curve]
COC(=O)Nc1nc2ccc(SC(C)C)cc2[nH]1	–	inconclusive: 11.2 µM [activator, partial curve]
COc1ccc(/C=N/NC(=O)c2ccc(CN3c4cccc5cccc(c45)S3(=O)=O)cc2)cc1	–	inconclusive: 6.51 µM [inhibitor, full curve]
COCCN(C(=S)Nc1ccc(C)c(C)c1)C(C)c1ccco1 (stereo not given)	–	inconclusive: 14.6 µM [inhibitor, partial curve]
Cc1ccc(OCC(=O)NNC(=O)C(C)Sc2ncnc3sc(C)c(C)c23)cc1 (stereo not given)	inactive: 23.9%	–
COc1cc2c(cc1OC)CN(CC(=O)Nc1ccc(C#N)cc1)CC2	–	inconclusive: 18.4 µM [inhibitor, single point]
Cc1sc2nc(CSCC(=O)NC(C)(C)C)[nH]c(=O)c2c1C	inactive: 1.68%	–
CCC(=O)Nc1ccc(-c2nnc(-c3ccccc3)o2)cc1	–	inconclusive: 1.84 µM [activator, partial curve]
O=C(COc1cc(F)ccc1[N+](=O)[O-])Nc1ccc2c(c1)OCO2	–	inconclusive: 6.51 µM [activator, full curve, poor fit]
S=C(c1cn(CCOc2cccc3ccccc23)c2ccccc12)N1CCCC1	inactive: -22.4%	–
O=C1CC(C(F)(F)C(F)(F)C(F)(F)C(F)(F)F)=Nc2ccccc2N1	–	inconclusive: 8.2 µM [activator, single point]
CN(C)Cc1nc2ccccc2c(=O)n1Cc1nc(C(C)(C)C)cs1	–	inconclusive: 29.1 µM [inhibitor, single point]
Cc1ccc(NC(=O)c2ccc(OCc3c(C)noc3C)cc2)cc1C	–	active: 10.3 µM
CC(C)C(=O)Nc1cccc2nsnc12	–	inconclusive: 35.5 µM [inhibitor, single point]
COc1cc2ccccc2cc1C(=O)Nc1nc(C)c(C(C)=O)s1	–	inconclusive: 16.4 µM [activator, partial curve]
CCc1ccc(C(=O)Cn2ccsc2=N)cc1	–	inconclusive: 2.59 µM [activator, full curve]

Structure (SMILES)	activity change, negative = inhibition	Potency
Cc1ccc(CSc2nnc(SCC(=O)N/N=C/C=C/c3ccccc3[N+](=O)[O-])s2)cc1	–	inconclusive: 11.6 µM [activator, partial curve]
COC(=O)c1[nH]c2ccc(C)cc2c1NC(=O)CN1CCN(Cc2ccccc2)CC1	–	active: 8.2 µM
CCN1CCCC1CNC(=O)c1ccc2c(c1)NC(=O)/C(=C\c1ccc(C)cc1)S2 (stereo not given)	inactive: 15.4%	–
O=C(NNC(=O)c1ccccc1F)c1ccco1	–	inconclusive: 16.4 µM [activator, single point]
O=C(COC(=O)COc1ccc(Cl)cc1Br)NCCC1=CCCCC1	inactive: 1.72%	–
O=C(OCC(=O)c1c[nH]c2ccccc12)c1ccc(Br)o1	–	inconclusive: 16.4 µM [activator, partial curve, poor fit]
CC1CCC(C(=O)NC(C(=O)NCc2cccnc2)C(C)C)CC1 (stereo not given)	inactive: 0.81%	–
O=C(NCc1cccs1)c1nc(-c2cccs2)no1	–	inconclusive: 20.6 µM [activator, partial curve]
Cn1c(=O)cc(OCCCC(=O)N2CCN(c3ccccc3)CC2)c2ccccc21	inactive: 5.01%	–
O=C(N/N=C\c1ccc(Oc2ccccc2)cc1)c1csnn1	–	inconclusive: 14.6 µM [activator, partial curve]
CCOc1ccc(N/C(N)=N/c2nc(CSc3nnc(C)s3)cc(=O)[nH]2)cc1	–	inconclusive: 1.16 µM [inhibitor, single point]
Cc1c(CCC(=O)O)c(=O)oc2cc3oc4c(c3cc12)CCCC4	–	inconclusive: 20.6 µM [activator, single point]
O=C(CSc1nc2ccccc2[nH]1)NCc1ccccc1	–	inconclusive: 0.73 µM [activator, partial curve, poor fit]
COCCN(C(=O)c1cc(Cl)nc2ccccc12)c1c(N)n(Cc2ccccc2)c(=O)[nH]c1=O	–	inconclusive: 23.1 µM [activator, partial curve, poor fit]
COc1ccc(OC)c(CN2CCC(CO)(CCOc3ccccc3)CC2)c1	inactive: 1.18%	–
COc1ccc(C2=Nn3c(nnc3-c3cc(C)[nH]n3)SC2)cc1	–	inconclusive: 11.6 µM [activator, partial curve]
CC(=O)Nc1ccc2nc(-c3cccs3)[nH]c2c1	–	inconclusive: 14.6 µM [activator, partial curve]
CCOC(=O)Nc1ccc2c(c1)N(C(=O)CCN1CCN(C)CC1)c1ccccc1S2	–	inconclusive: 35.5 µM [activator, single point]
COc1cc(CNc2ccccc2SC)cc(OC)c1OC	–	inconclusive: 20.6 µM [inhibitor, single point]
CCNC(=O)C(=O)Nc1ccc([N+](=O)[O-])cc1	–	inconclusive: 18.3 µM [activator, single point]
Cn1nnc(NC(=S)NC(=O)c2ccco2)n1	–	inconclusive: 20.6 µM [activator, single point]
N#Cc1nc(Nc2cc(F)cc(F)c2)c2ncn(CC(F)F)c2n1	–	inconclusive: 20.6 µM [inhibitor, partial curve, poor fit]
O=C(NCCc1cccc(Cl)c1)c1cccc([N+](=O)[O-])c1	–	inconclusive: 16.4 µM [activator, partial curve, poor fit]
O=C(/C=C/c1ccc([N+](=O)[O-])cc1)NC1CC2CCC1C2 (stereo not given)	inactive: 11.1%	–

Taken from the listing (17 entries):
Structure (SMILES)	activity change, negative = inhibition	Potency
Cc1ccc(CSc2nnc(SCC(=O)N/N=C/C=C/c3ccccc3[N+](=O)[O-])s2)cc1	–	inconclusive: 11.6 µM [activator, partial curve]
COC(=O)c1[nH]c2ccc(C)cc2c1NC(=O)CN1CCN(Cc2ccccc2)CC1	–	active: 8.2 µM
CCN1CCCC1CNC(=O)c1ccc2c(c1)NC(=O)/C(=C\c1ccc(C)cc1)S2 (stereo not given)	inactive: 15.4%	–
O=C(NNC(=O)c1ccccc1F)c1ccco1	–	inconclusive: 16.4 µM [activator, single point]
O=C(COC(=O)COc1ccc(Cl)cc1Br)NCCC1=CCCCC1	inactive: 1.72%	–
O=C(OCC(=O)c1c[nH]c2ccccc12)c1ccc(Br)o1	–	inconclusive: 16.4 µM [activator, partial curve, poor fit]
CC1CCC(C(=O)NC(C(=O)NCc2cccnc2)C(C)C)CC1 (stereo not given)	inactive: 0.81%	–
O=C(NCc1cccs1)c1nc(-c2cccs2)no1	–	inconclusive: 20.6 µM [activator, partial curve]
Cn1c(=O)cc(OCCCC(=O)N2CCN(c3ccccc3)CC2)c2ccccc21	inactive: 5.01%	–
O=C(N/N=C\c1ccc(Oc2ccccc2)cc1)c1csnn1	–	inconclusive: 14.6 µM [activator, partial curve]
CCOc1ccc(N/C(N)=N/c2nc(CSc3nnc(C)s3)cc(=O)[nH]2)cc1	–	inconclusive: 1.16 µM [inhibitor, single point]
Cc1c(CCC(=O)O)c(=O)oc2cc3oc4c(c3cc12)CCCC4	–	inconclusive: 20.6 µM [activator, single point]
O=C(CSc1nc2ccccc2[nH]1)NCc1ccccc1	–	inconclusive: 0.73 µM [activator, partial curve, poor fit]
COCCN(C(=O)c1cc(Cl)nc2ccccc12)c1c(N)n(Cc2ccccc2)c(=O)[nH]c1=O	–	inconclusive: 23.1 µM [activator, partial curve, poor fit]
COc1ccc(OC)c(CN2CCC(CO)(CCOc3ccccc3)CC2)c1	inactive: 1.18%	–
COc1ccc(C2=Nn3c(nnc3-c3cc(C)[nH]n3)SC2)cc1	–	inconclusive: 11.6 µM [activator, partial curve]
CC(=O)Nc1ccc2nc(-c3cccs3)[nH]c2c1	–	inconclusive: 14.6 µM [activator, partial curve]

Going on with the list:

Structure (SMILES)	activity change, negative = inhibition	Potency
COc1cccc(NC(=O)c2cc(=O)c3ccccc3o2)c1	–	inconclusive: 23.1 µM [activator, single point]
Cc1ccccc1NNC(=O)C(=O)NNc1ccccc1C	–	inconclusive: 32.6 µM [inhibitor, single point]
O=S(=O)(NC1CCCCC1N1CCN(c2ccc(F)cc2)CC1)c1ccc(Cl)cc1 (stereo not given)	–	inconclusive: 18.3 µM [inhibitor, partial curve, poor fit]
CC1=C(C)CC(C(=O)NC2CCN(C(C)C)CC2)C(C(=O)O)C1 (stereo not given)	–	inconclusive: 16.4 µM [activator, partial curve, poor fit]
O=C(CSc1nnnn1Cc1ccccc1)Nc1ccc2c(c1)OCCO2	–	inconclusive: 29.1 µM [activator, single point]
O=C(NC1CCCC1)C(c1ccc(Cl)cc1)N(Cc1ccc(F)cc1)C(=O)CCl (stereo not given)	inactive: -1.82%	–
COC(=O)c1ccccc1NC(=O)C1CCN(c2ncnc3c2nc2n3CCCCC2)CC1	–	inconclusive: 16.4 µM [inhibitor, partial curve]
COc1ccc(Br)c(C(=O)Nc2cccc(Cl)c2Cl)c1	–	inconclusive: 23.1 µM [activator, single point]
CCOc1ccccc1OCCCC(=O)NNC(=O)c1nn(C)c(=O)c2ccccc12	inactive: 9.41%	–
O=C(O)c1ccc(N2CCN(Cc3ccc4c(c3)OCO4)CC2)c([N+](=O)[O-])c1	inactive: 8.61%	–
CC(C)(C)NC(=O)Nc1ccc2nccnc2c1	–	inconclusive: 10.3 µM [activator, partial curve, poor fit]
CC(OC(=O)C1CC1)C(=O)Nc1cccc(S(=O)(=O)N2CCOCC2)c1 (stereo not given)	inactive: 9.85%	–
COc1ccc(/C=C/C(=O)NCc2cnn(C)c2C)cc1COc1ccc(Br)cc1	–	inconclusive: 29.1 µM [inhibitor, single point]
Cc1cc(NC(=O)CSc2nc3ccccc3cc2C#N)no1	–	inconclusive: 4.61 µM [activator, full curve]
Oc1ccc(N2CCN(c3nnnn3-c3ccccc3)CC2)cc1	–	inconclusive: 8.2 µM [inhibitor, partial curve]
CC(=O)c1ccc(NC(=O)NC2CC(=O)N(c3ccc4c(c3)OCCO4)C2)cc1 (stereo not given)	inactive: -1.5%	–
O=C(CSc1nnc(NC(=O)c2ccc(S(=O)(=O)N3CCOCC3)cc2)s1)Nc1ccccc1C(F)(F)F	inactive: 15.3%	–
Cc1cc(N)ccc1NC(=O)c1ccccc1	–	inconclusive: 20.6 µM [activator, single point]
Cn1ccnc1SCC(=O)Nc1cccc(C(F)(F)F)c1	–	inconclusive: 5.17 µM [activator, single point]
CCN1/C(=C/C=C/c2oc3ccc(-c4ccccc4)cc3[n+]2CC)Oc2ccc(-c3ccccc3)cc21	–	active: 11.6 µM
Cc1ccc(-c2nnc(N3CCN(S(C)(=O)=O)CC3)c3ccccc23)cc1	–	inconclusive: 13 µM [inhibitor, partial curve, poor fit]
Fc1ccccc1-c1csc(-c2cccnc2)n1	–	inconclusive: 16.4 µM [activator, single point]
